{"source": "PubChem BioAssay AID1347075", "about": "(National Center for Advancing Translational Sciences (NCATS), 2019)", "note": "Several values for one entry are separate records, joined by “and”; a condition that tells them apart may be missing. Equal values may be shown once. The campaign covered roughly 400,000 compounds. About 5,500 (1.4%) were called active. The shares of active, inactive and inconclusive entries below differ from those in the screen. Calls come from the whole dose curve; as a rule, active = well fitted cell-killing curve with a large enough effect; inconclusive = small, poorly fitted or top-dose-only effect, or effect the other way; inactive = flat fitted curve, though single readings scatter. Potencies beside an inconclusive call are fits to weak or partial responses and may not hold up. Potency is the fitted concentration of half-maximal effect."}
{"experiment": "qHTS assay for MDR1-selective chemotherapeutics: Primary screen using the parental adenocarcinoma cell KB-3-1; note: nearly all actives have a fitted effect of over 60% in size", "settings": "KB-3-1 viability, CellTiter-Glo ATP luminescence, 72 h; series mostly up to 46.1 µM", "summary_of_the_method": "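Parental KB-3-1 adenocarcinoma cells in phenol-red-free DMEM with 10% FBS were pin-treated with compounds at several concentrations, incubated 72 h at 37 °C, and viability read by CellTiter-Glo luminescence; concentration-effect curves were fitted after normalization.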"}
{"smiles": "COc1ccc(CCN2C(=O)c3cccc4cccc(c34)C2=O)cc1OC", "Potency": "inactive"}
{"smiles": "Cc1ccc(S(=O)(=O)N(C)C[C@@H]2OCc3ccccc3-c3c(n(C)c4ccccc34)C(=O)N([C@H](C)CO)C[C@@H]2C)cc1", "Potency": "inconclusive: 18.4 µM [cytotoxic, single point]"}
{"smiles": "COc1ccc(-c2cncc3nccn23)cc1OC", "Potency": "inactive"}
{"smiles": "COc1ccc(C=O)cc1COc1ccc(Cl)cc1[N+](=O)[O-]", "Potency": "inconclusive: 32.6 µM [cytotoxic, single point]"}
{"smiles": "CCOC(=O)C1CCCN(C(=O)Cn2sc3nc(C)cc(C)c3c2=O)C1", "note": "(configuration not stated)", "Potency": "inconclusive: 20.6 µM [cytotoxic, single point]"}
{"smiles": "O=C(O)c1ccccc1Nc1ccnc(C(F)(F)F)c1", "Potency": "inconclusive: 32.6 µM [cytotoxic, partial curve, poor fit]"}
{"smiles": "O=C(c1ccc2c(Cl)c3c(nc2c1)CCCC3)N1CCN(c2cccc(C(F)(F)F)c2)CC1", "Potency": "inactive"}
{"smiles": "COc1ccc(/C=N/NC(=O)c2[nH]nc3c2CCc2ccccc2-3)cc1OC", "Potency": "inconclusive: 3.66 µM [cytotoxic, partial curve, poor fit]"}
{"smiles": "O=C(Nc1ccc(N2CCOCC2)cc1)Nc1ccc(Cl)c(Cl)c1", "Potency": "inconclusive: 18.4 µM [cytotoxic, single point]"}
{"smiles": "Cc1ccc(C2C(C=Nc3c(C)n(C)n(-c4ccccc4)c3=O)=C(c3ccccc3)Oc3ccccc32)cc1", "note": "(configuration not stated)", "Potency": "inconclusive: 25.9 µM [cytotoxic, single point]"}
{"smiles": "COc1cc(CN(C)CC(=O)c2[nH]c(C)c(C(C)=O)c2C)ccc1OC(F)F", "Potency": "inconclusive: 2.91 µM [cytotoxic, full curve]"}
{"smiles": "Cc1ccccc1CN1[C@@H](CC2CCCCC2)COCCS1(=O)=O", "Potency": "inconclusive: 18.4 µM [cytotoxic, single point] and inconclusive: 25.9 µM [cytotoxic, single point]"}
{"smiles": "CCCc1cc(=O)[nH]c(SCC(=O)c2ccc3c(c2)NC(=O)CO3)n1", "Potency": "inactive"}
{"smiles": "CC(=O)c1sc(N/N=C\\c2ccccc2O)nc1C", "Potency": "inconclusive: 20.6 µM [cytotoxic, single point]"}
{"smiles": "CNCC/C=C1/c2ccccc2CSc2ccccc21", "Potency": "inactive"}
{"smiles": "CC(C)c1c(C(=O)N/N=C/c2ccc(Cl)cc2Cl)nnn1-c1nonc1N", "Potency": "inactive"}
{"smiles": "CC(C)(C)N1CSC(=S)N(Cc2ccccc2)C1", "Potency": "inactive"}
{"smiles": "O=c1/c(=C\\c2ccc(O)cc2)sc2n1C(c1ccccc1)C(c1ccccc1)=NN=2", "note": "(configuration not stated)", "Potency": "inconclusive: 29.1 µM [cytotoxic, single point]"}
{"smiles": "Cc1ccc(CNC(=O)CN2CCN(Cc3ccc(F)cc3Cl)C2=O)cc1", "Potency": "inactive"}
{"smiles": "CCn1c(CNC(=O)COC)nc2ccccc21", "Potency": "inactive"}
{"smiles": "O=C(COc1ccc(Oc2ccccc2)cc1)NCc1cn2ccccc2n1", "Potency": "active: 14.6 µM"}
{"smiles": "OCCn1c(-c2ccc3c(c2)OCO3)csc1=Nc1ccccc1", "Potency": "inconclusive: 18.4 µM [cytotoxic, partial curve]"}
{"smiles": "CC1CCCC(C)N1C(=O)COC(=O)c1ccc(Br)o1", "note": "(configuration not stated)", "Potency": "inactive"}
{"smiles": "CC(=O)OC1C2CCC1C([N+]1(C)CCCCC1)CC2", "note": "(configuration not stated)", "Potency": "inactive"}
{"smiles": "CC1(C(=O)Nc2ccc3c(c2)OCO3)CCN1Cc1cccc2c1OCO2", "note": "(configuration not stated)", "Potency": "inconclusive: 23.1 µM [cytotoxic, single point]"}
{"smiles": "Cc1ccc(NC(=S)Nc2ccc(OC(F)F)c(Cl)c2)cc1Cl", "Potency": "active: 20.6 µM"}
{"smiles": "Cc1nc(Cc2ccccc2)sc1CC#N", "Potency": "inactive"}
{"smiles": "COc1ccc(C(=O)CSc2nnc(-c3cc4ccccc4cc3O)n2Cc2ccco2)cc1", "Potency": "inconclusive: 29.1 µM [cytotoxic, single point]"}
{"smiles": "CCOC(=O)C1CCCN(C(=O)COC(=O)c2cccs2)C1", "note": "(configuration not stated)", "Potency": "inactive"}
{"smiles": "N=C1C(c2nc3ccccc3s2)=C(O)CN1Cc1ccccc1", "Potency": "active: 4.11 µM"}
{"smiles": "N#CC1=C(N)Oc2cc(N)ccc2C1C1CCCCC1", "note": "(configuration not stated)", "Potency": "active: 5.8 µM"}
{"smiles": "O=C1Nc2ccc(Br)cc2C12NNc1ccccc1O2", "note": "(configuration not stated)", "Potency": "inconclusive: 29.1 µM [cytotoxic, single point]"}
{"smiles": "Oc1ccc(-c2nc3ccc4ccccc4c3c3c2CCC3)cc1O", "Potency": "inconclusive: 0.731 µM [rising, full curve]"}
{"smiles": "COc1ccc2c(c1)N(C)/C(=C/c1cccc[n+]1C)S2", "Potency": "active: 1.64 µM"}
{"smiles": "COc1ccc(OC)c(Nc2cc(C)nc3ccc(C)cc23)c1", "Potency": "active: 7.31 µM"}
{"smiles": "O=C(c1ccc2ncsc2c1)N1CCCC(C(F)(F)F)C1", "note": "(configuration not stated)", "Potency": "inactive"}
{"smiles": "O=C(CSc1ccc(-c2ccccn2)nn1)NC1CCCC1", "Potency": "inconclusive: 25.9 µM [rising, single point]"}
{"smiles": "CC1CCCCC1NC1=NCCS1", "note": "(configuration not stated)", "Potency": "inactive"}
{"smiles": "CC1CCCCN1c1ncnc2ccccc12", "note": "(configuration not stated)", "Potency": "inconclusive: 23.1 µM [cytotoxic, single point]"}
{"smiles": "CCC(CC)C(=O)N(C)c1c(C)nc2c(OCCOc3ccc(F)cc3)cccn12", "Potency": "inactive"}
{"smiles": "O=c1cc(N2CCCCC2)c(-c2ccccc2)nn1Cc1c(Cl)cccc1Cl", "Potency": "inconclusive: 29.1 µM [cytotoxic, single point]"}
{"smiles": "C[C@H](CO)N1C[C@H](C)[C@@H](CN(C)C(=O)Nc2ccccc2)Oc2ccc(NC(=O)Cc3ccccc3)cc2C1=O", "Potency": "inactive"}
{"smiles": "COc1ccc(/C=C/C(=O)Nc2cc(C)nn2-c2nc3ccccc3[nH]2)cc1", "Potency": "inconclusive: 25.9 µM [cytotoxic, single point]"}
{"smiles": "c1ccc(N2CCN(c3nc(-c4ccccn4)nc4ccccc34)CC2)cc1", "Potency": "inconclusive: 29.1 µM [cytotoxic, single point]"}
{"smiles": "CC1(C)N=C(N)N=C(N)N1c1cc(Cl)ccc1Cl", "Potency": "inactive"}
{"smiles": "CCS(=O)(=O)N1CCN(c2ccc([N+](=O)[O-])c(NCC3CCCO3)c2)CC1", "note": "(configuration not stated)", "Potency": "inconclusive: 25.9 µM [rising, partial curve, poor fit]"}
{"smiles": "Cc1c(C(=O)NN2CCN(C)CC2)cccc1[N+](=O)[O-]", "Potency": "inactive"}
{"smiles": "CCCCn1c(=N)n(CCOc2ccc(C)cc2)c2ccccc21", "Potency": "inconclusive: 29.1 µM [cytotoxic, partial curve, poor fit]"}
{"smiles": "Cc1c(C(=O)N/N=C/c2ccc(N(C)C)cc2)[nH]c2ccc(Cl)cc12", "Potency": "active: 5.8 µM"}
{"smiles": "COc1cccc(-c2cc(NC=O)c3ncc(-c4ccc(C(C)=O)cc4)n3c2)c1", "Potency": "active: 5.17 µM"}
{"smiles": "Cc1ccc(-n2ncc3c(=O)n(Cc4cccnc4)cnc32)cc1", "Potency": "active: 18.4 µM"}
{"smiles": "NC(=O)NC1CCCc2c1[nH]c1ccc(Cl)cc21", "note": "(configuration not stated)", "Potency": "inconclusive: 32.6 µM [cytotoxic, partial curve, poor fit]"}
{"smiles": "C#CCOCCOCCOCCNc1nc(N2CCN(C(=O)CCCCCCCCCCNC(=O)[C@H](CCCCN)n3cc(C)nn3)CC2)nc(N2CCN(C(=O)CCCCCCCCCCNC(=O)[C@@H]([C@H](C)O)n3cc(C)nn3)CC2)n1", "Potency": "active: 20.6 µM"}
{"smiles": "COCCCN=C1NN=C(c2cc(C)n(Cc3ccco3)c2C)CS1", "Potency": "inconclusive: 29.1 µM [cytotoxic, single point]"}
{"smiles": "CCC(=O)Nc1ccc(C(=O)n2ccc(C)n2)cc1", "Potency": "inconclusive: 32.6 µM [rising, partial curve, poor fit]"}
{"smiles": "N#CC(c1cccc(Cl)c1)c1ccc2c(C(F)(F)F)cc(C(F)(F)F)nc2n1", "note": "(configuration not stated)", "Potency": "inconclusive: 0.517 µM [cytotoxic, full curve, poor fit]"}
{"smiles": "COc1ccc(CCN(C(=S)Nc2ccccc2)C2CC(=O)N(c3ccccc3)C2=O)cc1", "note": "(configuration not stated)", "Potency": "inactive"}
{"smiles": "CC1CCC(NC(=O)C(C)N2C(=O)C3CCCCC3C2=O)CC1", "note": "(configuration not stated)", "Potency": "inactive"}
{"smiles": "Cc1cccc(COc2ccccc2C(=O)N(C)CC(=O)Nc2cccc(F)c2)c1", "Potency": "inconclusive: 18.4 µM [cytotoxic, partial curve]"}
{"smiles": "Cn1c(=O)c2cc(NC(=O)CCc3ccccc3)ccc2n1-c1ccccc1F", "Potency": "inconclusive: 18.4 µM [cytotoxic, single point]"}
{"smiles": "Nc1cc(Cl)ccc1C(=O)OCC(=O)NCC1CCCO1", "note": "(configuration not stated)", "Potency": "inconclusive: 23.1 µM [rising, single point]"}
{"smiles": "CC(Oc1ccc(F)cc1)C(=O)Nc1ccccc1N1CCCCC1", "note": "(configuration not stated)", "Potency": "inconclusive: 29.1 µM [cytotoxic, single point]"}
{"smiles": "O=C(NNc1c2ccccc2nc2ccccc12)c1cccc(O)c1", "Potency": "inconclusive: 23.1 µM [rising, single point]"}
{"smiles": "O=C1NC[C@@H](c2ccccc2)OC(=O)[C@@H](Cc2ccc(F)cc2)CC/C=C/C[C@@H]1CC(=O)N(CCO)Cc1ccccc1", "Potency": "inconclusive: 20.6 µM [cytotoxic, single point]"}
{"smiles": "Cc1cc(C)cc(OCC(=O)Nc2cccc(-c3nnc(-c4ccco4)o3)c2)c1", "Potency": "inactive"}
{"smiles": "Cc1ccc(SCc2[nH]nc3c2C2(C(=O)Nc4ccc(F)cc42)C(C#N)=C(N)O3)cc1", "note": "(configuration not stated)", "Potency": "inconclusive: 20.6 µM [cytotoxic, single point]"}
{"smiles": "COc1ccc(-n2c(SCC(=O)N3CCC(C(=O)O)CC3)nc3ccccc3c2=O)cc1OC", "Potency": "inconclusive: 29.1 µM [rising, single point]"}
{"smiles": "O=C1C=CC(=Nc2ccc3c(c2)C(=O)c2ccccc2-3)O1", "Potency": "inactive"}
{"smiles": "COc1ccc(NC(=O)C(C2CC2)n2c(=O)c(-c3cc4ccccc4[nH]3)nc3ccccc32)cc1", "note": "(configuration not stated)", "Potency": "inactive"}
{"smiles": "Cc1ccc(Cl)cc1Nc1nn2c(=O)c3ccc(C(=O)NC(C)c4ccccc4)cc3nc2s1", "note": "(configuration not stated)", "Potency": "inconclusive: 11.6 µM [cytotoxic, partial curve, poor fit]"}
{"smiles": "Nc1ccc(C(=O)N/N=C\\C=C\\c2cccc([N+](=O)[O-])c2)cc1", "Potency": "inconclusive: 8.2 µM [rising, partial curve, poor fit]"}
{"smiles": "O=C(CC1C(=O)NCCN1Cc1cccc(F)c1)NCCCN1CCCC1=O", "note": "(configuration not stated)", "Potency": "inconclusive: 29.1 µM [rising, single point]"}
